{
  "sequences": {"note": "Protein sequences, listed by entry. Tags and fused reporters are not part of them. Lines headed by an entry give the natural chain unless they say otherwise; changes in a name come on top.", "UniProt P51450": "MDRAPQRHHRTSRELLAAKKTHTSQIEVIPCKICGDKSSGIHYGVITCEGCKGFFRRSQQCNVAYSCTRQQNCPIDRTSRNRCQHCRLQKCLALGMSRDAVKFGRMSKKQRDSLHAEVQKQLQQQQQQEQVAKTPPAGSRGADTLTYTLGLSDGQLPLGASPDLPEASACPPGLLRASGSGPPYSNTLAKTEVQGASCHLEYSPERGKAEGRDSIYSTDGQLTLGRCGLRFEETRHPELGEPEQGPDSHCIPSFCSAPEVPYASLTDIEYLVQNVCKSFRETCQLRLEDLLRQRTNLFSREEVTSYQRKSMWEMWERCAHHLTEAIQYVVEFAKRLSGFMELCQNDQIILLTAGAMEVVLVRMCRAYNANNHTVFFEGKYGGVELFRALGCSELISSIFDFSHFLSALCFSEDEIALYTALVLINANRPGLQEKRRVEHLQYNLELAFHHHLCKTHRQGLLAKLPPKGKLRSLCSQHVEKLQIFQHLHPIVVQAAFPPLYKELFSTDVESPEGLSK"},
  "source": "PubChem BioAssay AID2551",
  "about": "(National Center for Advancing Translational Sciences (NCATS), 2010)",
  "note": "The campaign covered roughly 310,000 compounds. About 17,000 (5.5%) were called active. The shares of active, inactive and inconclusive entries below differ from those in the screen. Calls follow the shape of the dose curve; as a rule, active = well fitted inhibition curve with a large enough effect; inconclusive = small, poorly fitted or top-dose-only effect, or effect the other way; inactive = no such curve, though single readings can be large or run the other way. Potencies of inconclusive entries are doubtful fits and often do not repeat. % is scaled to controls: 0 for no effect and ±100 for the full control effect; potency is read from the fitted curve at half-maximal effect.",
  "data": [
    {"target": "Nuclear receptor ROR-gamma (Mus musculus) (UniProt P51450)", "assay": "qHTS for inhibitors of ROR gamma transcriptional activity; also: nearly all actives have a fitted effect of over 60% in size", "conditions": "Drosophila S2 Gal4-RORgamma UAS-luciferase reporter, 20 h; activity change, negative = inhibition: at 53.6 µM (top of the series)", "in_short": "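In this cell-based reporter format, copper sulfate (700 uM final) drives Gal4–ROR gamma fusion expression from a metallothionein promoter in Drosophila Schneider cells; compounds preincubated 1 hr, reporter read after 20 hr at ambient temperature.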", "values": [
      {"compound": "C=CCN(CC=C)C(=O)c1ccc2nc(Cc3ccc(OC)c(OC)c3)oc2c1", "Potency": "inconclusive: 3.55 µM [activator, full curve]"},
      {"compound": "CS(=O)(=O)N1CCN(c2ccccc2NC(=O)Cc2ccccc2)CC1", "Potency": "inconclusive: 3.98 µM [inhibitor, single point]"},
      {"compound": "C=C(C)COc1ccc(-c2[nH]ncc2Oc2ccc(OC)cc2)c(O)c1", "Potency": "active: 12.6 µM"},
      {"compound": "Nc1ccc(C(=O)Nc2ccc(OC(F)(F)C(F)F)c(NC(=O)c3ccc(N)cc3)c2)cc1", "Potency": "inconclusive: 8.91 µM [activator, partial curve]"},
      {"compound": "O=C(CCc1ccccc1)Nc1cc(C(F)(F)F)ccc1Cl", "Potency": "inconclusive: 15.8 µM [activator, single point]"},
      {"compound": "CC1(C)Cc2c(C#N)c(N3CCN(C(=O)c4ccccc4)CC3)nc(-c3ccco3)c2CS1", "Potency": "inconclusive: 35.5 µM [inhibitor, single point]"},
      {"compound": "O=C(Nc1nc(-c2ccc3ccccc3c2)cs1)c1ccc(N2C(=O)CCC2=O)cc1", "Potency": "inconclusive: 35.5 µM [inhibitor, single point]"},
      {"compound": "Cc1ccc(CNC(=O)C2CCN(S(=O)(=O)c3cccs3)CC2)o1", "Potency": "inconclusive: 0.708 µM [inhibitor, partial curve]"},
      {"compound": "COc1ccc(/C=C/C(=O)c2ccc3c4c(cccc24)CC3)cc1OC", "Potency": "inconclusive: 35.5 µM [inhibitor, single point]"},
      {"compound": "Cc1ccc(S(=O)(=O)NC2=NCN(CCOC(=O)c3ccc([N+](=O)[O-])cc3)CN2)cc1", "Potency": "inconclusive: 14.1 µM [inhibitor, single point]"},
      {"compound": "Cc1ccc2nc(-c3cccc(N)c3)[nH]c2c1", "Potency": "active: 7.94 µM"},
      {"compound": "O=S(=O)(NCc1cccnc1)c1cccc2cccnc12", "activity change, negative = inhibition": "inactive: 5.81%"},
      {"compound": "c1ccc(-c2ccccc2OCCn2cncn2)cc1", "Potency": "inconclusive: 10 µM [inhibitor, single point]"},
      {"compound": "O=C(NCc1ccc(F)cc1)N1CCc2ccccc2C1", "Potency": "inconclusive: 14.1 µM [activator, single point]"},
      {"compound": "CCCCCCC1CCC(C(=O)Nn2c(C)nc3ccccc3c2=O)CC1", "note": "(stereo unspecified)", "Potency": "inconclusive: 6.31 µM [activator, single point]"},
      {"compound": "CCOC(=O)C1=C(C)N(c2ccc(OC)cc2)C(=O)/C1=C\\c1ccc(O)c(OCC)c1", "Potency": "inconclusive: 14.1 µM [inhibitor, single point]"},
      {"compound": "CCOC(=O)c1sc(NC(=O)c2ccc(S(=O)(=O)N(CC)CC)cc2)nc1C", "Potency": "inconclusive: 0.126 µM [inhibitor, partial curve, poor fit]"},
      {"compound": "Cc1onc(-c2ccccc2)c1-c1csc(N/N=C/c2ccccc2)n1", "activity change, negative = inhibition": "inactive: -20.6%"},
      {"compound": "O=C(CSc1ccc2ccccc2n1)N/N=C/c1ccc(O)cc1", "Potency": "inconclusive: 12.6 µM [activator, partial curve]"},
      {"compound": "COc1ccc(NC(=O)c2sc(N3CCOCC3)nc2-c2ccccc2)c(OC)c1", "Potency": "inconclusive: 4.47 µM [activator, full curve]"},
      {"compound": "O=S(=O)(c1ccc(OCC(O)CNC23CC4CC(CC(C4)C2)C3)c(Cl)c1)N1CCOCC1", "note": "(stereo unspecified)", "Potency": "inconclusive: 11.2 µM [inhibitor, partial curve, poor fit]"},
      {"compound": "Cc1ccc2nc(-c3cccc(NC(=O)c4ccc5c(c4)OCCO5)c3)oc2c1", "Potency": "inconclusive: 2.82 µM [activator, single point]"},
      {"compound": "Nc1nc(CSc2ncn(-c3ccccc3)n2)cs1", "Potency": "inconclusive: 12.6 µM [inhibitor, single point]"},
      {"compound": "CCOc1cc(/C=N\\O)cc(Cl)c1OCC", "activity change, negative = inhibition": "inactive: 14%"},
      {"compound": "O=C(Nc1cc(C(F)(F)F)ccc1-n1cncn1)c1ccc(-c2ccccc2)cc1", "Potency": "inconclusive: 0.112 µM [activator, full curve, poor fit]"},
      {"compound": "C=CCc1cccc(/C=N/NC(=O)COc2ccc(-n3cnnn3)cc2)c1O", "Potency": "active: 8.91 µM"},
      {"compound": "Cc1cc(OCC(=O)N(C)c2ccccc2)cc2c1C(=O)CC(C)(C)O2", "Potency": "inconclusive: 20 µM [activator, single point]"},
      {"compound": "CC1CCCCN1S(=O)(=O)c1ccc(C(=O)Nc2nnc(-c3ccccc3Cl)o2)cc1", "note": "(stereo unspecified)", "Potency": "active: 0.708 µM"},
      {"compound": "CCOC(=O)C(C)(C)Sc1nc2c(cnn2-c2ccc(Cl)cc2)c(=O)[nH]1", "Potency": "inconclusive: 22.4 µM [inhibitor, single point]"},
      {"compound": "COc1ccc(C(=O)Nc2ccc(F)cc2F)cc1", "Potency": "inconclusive: 1.26 µM [activator, partial curve, poor fit]"},
      {"compound": "CCCCOc1ccc(C(=O)O)cc1", "activity change, negative = inhibition": "inactive: -8.31%"},
      {"compound": "COc1ccc(/C=N/n2c(C)nnc2C)c(OC)c1", "activity change, negative = inhibition": "inactive: 6.95%"},
      {"compound": "CN(CCOc1ccccc1)c1ccc(S(=O)(=O)N2CCCCC2)cn1", "Potency": "inconclusive: 22.4 µM [activator, single point]"},
      {"compound": "Cc1ccc(C2CC(C(F)(F)F)n3ncc(C(=O)NCc4ccco4)c3N2)cc1", "note": "(stereo unspecified)", "activity change, negative = inhibition": "inactive: -1.73%"},
      {"compound": "CC(C)(C)c1ccc(C(=O)Nc2cccc3c(=O)[nH][nH]c(=O)c23)cc1", "Potency": "inconclusive: 6.31 µM [inhibitor, partial curve]"},
      {"compound": "CCCCN(CC)CCNC(=O)c1cc2c(=O)[nH]c3ccccc3c2s1", "activity change, negative = inhibition": "inactive: -19.9%"},
      {"compound": "COc1cc(CN2CCNC(=O)C2CC(=O)N(Cc2nccn2C)C(C)C)cc(OC)c1", "note": "(stereo unspecified)", "activity change, negative = inhibition": "inactive: -2.47%"},
      {"compound": "O=C(Nc1ccc(F)cc1)c1cnc(-c2ccccc2)nc1-c1ccccc1", "Potency": "inconclusive: 15.8 µM [inhibitor, single point]"},
      {"compound": "CSc1nc(=S)c2[nH]c(=S)[nH]c2[nH]1", "activity change, negative = inhibition": "inactive: 5.69%"},
      {"compound": "CC(=O)Nc1nc(SCCCc2ccccc2)n[nH]1", "activity change, negative = inhibition": "inactive: 41.9%"},
      {"compound": "C=CCNc1oc(-c2ccc(OCC)cc2)nc1C#N", "Potency": "inconclusive: 1.26 µM [activator, partial curve]"},
      {"compound": "COc1cccc(C2C=C(Nc3ccccc3)C(=O)N2c2ccccc2)c1", "note": "(stereo unspecified)", "Potency": "inconclusive: 11.2 µM [activator, partial curve]"},
      {"compound": "C[C@H](NC(=O)c1nc[nH]c1C(=O)N1CCN(c2ccccc2)CC1)C(=O)OCc1ccccc1", "Potency": "inconclusive: 22.4 µM [inhibitor, single point]"},
      {"compound": "O=S(=O)(Nc1ccc2c(c1)OCO2)c1ccc(Br)s1", "Potency": "inconclusive: 35.5 µM [activator, single point]"},
      {"compound": "Cc1cccc(C)c1NC(=S)N(CCN1CCCCCC1)Cc1ccco1", "Potency": "active: 12.6 µM"},
      {"compound": "CCC(=O)NC(=S)Nc1cccc(NC(=O)c2ccc(Cl)cc2Cl)c1", "Potency": "active: 2.82 µM"},
      {"compound": "CCOc1ccc(S(=O)(=O)N2CN3CCN(C3)C2)cc1", "Potency": "inconclusive: 7.08 µM [inhibitor, partial curve, poor fit]"},
      {"compound": "Cc1cccc(NC(=S)N2CCN(c3ccccn3)CC2)c1", "Potency": "inconclusive: 35.5 µM [inhibitor, single point]"},
      {"compound": "Cc1cc(C(=O)Nc2ccc(N3CCCCC3)cc2)no1", "Potency": "inconclusive: 0.708 µM [activator, full curve, poor fit]"},
      {"compound": "COc1ccc(-c2c(-c3ccc(OCC(=O)NN)cc3O)n[nH]c2C(F)(F)F)cc1", "Potency": "active: 6.31 µM"},
      {"compound": "CCOC(=O)/C(=N\\Nc1ccc(C(C)=O)cc1)c1csc(Nc2ccccc2)n1", "Potency": "inconclusive: 15.8 µM [inhibitor, single point]"},
      {"compound": "O=S(=O)(Nc1ccc(Oc2ncccn2)c(Cl)c1)c1ccc(Cl)cc1", "Potency": "inconclusive: 8.91 µM [inhibitor, partial curve, poor fit]"},
      {"compound": "CC1(C)CC(=O)c2c(oc3cc4c(cc23)OCO4)C1", "Potency": "inconclusive: 35.5 µM [activator, single point]"},
      {"compound": "O=C(Cn1ncn2c(cc3ccccc32)c1=O)NCc1ccco1", "Potency": "active: 5.62 µM"},
      {"compound": "O=C(CCCNS(=O)(=O)c1cccs1)N1CCN(c2ccc(F)cc2)CC1", "Potency": "inconclusive: 20 µM [activator, single point]"},
      {"compound": "COc1ccc(Oc2coc3cc(OC(=O)N4CCOCC4)ccc3c2=O)cc1", "activity change, negative = inhibition": "inactive: 21%"},
      {"compound": "CC(=O)N1C2(C=CC1(C)C(=O)NCc1cc(F)cc(C(F)(F)F)c1)CCCCC2", "note": "(stereo unspecified)", "Potency": "inconclusive: 11.2 µM [activator, partial curve]"},
      {"compound": "O=C(C(=O)N1CCc2ccccc2C1)c1cn(CC(=O)N2CCCC2)c2ccccc12", "Potency": "inconclusive: 20 µM [activator, single point]"},
      {"compound": "COc1ccc(NC(=O)Cn2nc(C(F)(F)F)c3c2CCCC3)cc1OC", "Potency": "inconclusive: 20 µM [activator, single point]"},
      {"compound": "OC1C=CSc2nc3ccccc3n21", "note": "(stereo unspecified)", "activity change, negative = inhibition": "inactive: -37.8%"},
      {"compound": "COc1ccc(NS(=O)(=O)c2cc(S(C)(=O)=O)ccc2C)cc1", "activity change, negative = inhibition": "inactive: 18.1%"},
      {"compound": "FC(F)(F)c1cnc2c(c1)[nH]c(=S)n2-c1ccc(Cl)cc1", "Potency": "active: 7.94 µM"},
      {"compound": "Cc1cccnc1NC(=S)NC(=O)/C=C/c1ccccc1", "Potency": "active: 4.47 µM"},
      {"compound": "Cc1ccc(C(=O)COC(=O)CCN2C(=O)C3C4C=CC(C5CC45)C3C2=O)cc1", "note": "(stereo unspecified)", "activity change, negative = inhibition": "inactive: -0.462%"},
      {"compound": "O=C(Nc1ccc(S(=O)(=O)NCc2ccco2)cc1)C1CCCCC1", "Potency": "inconclusive: 35.5 µM [activator, single point]"},
      {"compound": "C/C(=N\\Nc1nc2ccccc2s1)c1cccs1", "Potency": "active: 0.708 µM"},
      {"compound": "COc1ncc2nc(-c3cccc(C#N)c3)c(=O)n(CCC#N)c2n1", "activity change, negative = inhibition": "inactive: -6.48%"},
      {"compound": "COc1ccccc1NC(=O)COc1ccccc1C(=O)c1cnn(-c2ccccc2)c1", "Potency": "inconclusive: 5.62 µM [activator, full curve]"},
      {"compound": "Cc1ccc(C(C)C)c(OCc2nc(-c3nonc3N)no2)c1", "Potency": "inconclusive: 31.6 µM [activator, single point]"},
      {"compound": "COc1ccc(C(=O)CC(SCC(NC(C)=O)C(=O)O)c2ccc(Cl)cc2)cc1OC", "note": "(stereo unspecified)", "Potency": "inconclusive: 14.1 µM [activator, single point]"},
      {"compound": "NC(=S)N=Nc1c(O)[nH]c2ccccc12", "Potency": "active: 20 µM"}
    ]}
  ]
}
